Where two headings read alike, the source gives them in different places. No constants are given. Whether binding was seen depends on the method and setting. Binding seen in cells or lysates may run through a third protein. These calls come from enrichment with a bait or labelling near it, and not all partners need be listed. For part of these data: Tags and fused reporters may be left off the sequences shown. Each block holds one molecule with its values, some of them ahead of it.
Assays:
[1] = molecular target: T1, HA-LUBEL^1-872 (Drosophila melanogaster) (UniProt Q8IPJ3); experiment: affinity purification with mass spectrometry; HA-LUBEL^1-872 or LacZ (control) expressed in 3IL body wall muscles; carcass fillet lysates (1% NP-40, 1 mM EDTA, 20 mM tris-HCl pH 7.4, 150 mM NaCl), anti-HA magnetic beads, on-bead trypsin digest, LC-MS/MS
T1 sequence: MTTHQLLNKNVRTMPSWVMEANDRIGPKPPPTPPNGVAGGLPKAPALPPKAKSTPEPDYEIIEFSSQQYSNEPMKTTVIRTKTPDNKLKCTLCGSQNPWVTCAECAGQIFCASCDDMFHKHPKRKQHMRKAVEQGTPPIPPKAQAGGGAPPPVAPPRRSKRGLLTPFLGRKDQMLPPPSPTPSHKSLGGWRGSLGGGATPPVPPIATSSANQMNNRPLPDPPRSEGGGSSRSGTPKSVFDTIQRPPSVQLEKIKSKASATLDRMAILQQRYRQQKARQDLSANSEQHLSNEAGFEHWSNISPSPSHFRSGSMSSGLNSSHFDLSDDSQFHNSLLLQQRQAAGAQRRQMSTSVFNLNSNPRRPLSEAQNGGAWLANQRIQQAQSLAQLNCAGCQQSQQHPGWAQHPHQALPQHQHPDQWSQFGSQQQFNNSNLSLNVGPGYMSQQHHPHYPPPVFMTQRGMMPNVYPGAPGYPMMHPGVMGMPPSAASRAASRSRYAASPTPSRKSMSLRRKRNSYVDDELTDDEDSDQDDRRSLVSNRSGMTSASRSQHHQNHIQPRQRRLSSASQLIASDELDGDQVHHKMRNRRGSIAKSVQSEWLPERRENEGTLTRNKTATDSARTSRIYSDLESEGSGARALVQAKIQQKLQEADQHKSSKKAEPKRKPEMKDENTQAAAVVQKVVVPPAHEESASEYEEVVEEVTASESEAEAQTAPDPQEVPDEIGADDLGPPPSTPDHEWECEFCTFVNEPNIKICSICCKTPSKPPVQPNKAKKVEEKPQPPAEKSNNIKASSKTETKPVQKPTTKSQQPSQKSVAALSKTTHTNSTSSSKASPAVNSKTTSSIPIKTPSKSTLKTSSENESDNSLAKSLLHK

[2] = molecular target: T1, HA-LUBEL^1-872 (Drosophila melanogaster); experiment: as above; remark: listed apart in the source
[3] = molecular target: miniTurbo-3xHA-LUBEL (Drosophila melanogaster) (UniProt Q8IPJ3); experiment: proximity labelling; miniTurbo-fused bait expressed in larval body wall muscles (Mef2-GAL4); larvae reared on 1 mM biotin for 2 days at 25°C; biotinylated peptides enriched on Tamavidin 2-REV beads and analysed by MS; fold change against mnTb alone

- binding [1]: binds
Molecule: LUBEL (from UniProt Q8IPJ3 1-2892) (enzyme)

- binding [2]: binds
- binding [3]: binds
B1: Amphiphysin (Amph) (protein, UniProt Q7KLE5 1-602)
chain: MTENKGIMLAKSVQKHAGRAKEKILQNLGKVDRTADEIFDDHLNNFNRQQASANRLQKEFNNYIRCVRAAQAASKTLMDSVCEIYEPQWSGYDALQAQTGASESLWADFAHKLGDQVLIPLNTYTGQFPEMKKKVEKRNRKLIDYDGQRHSFQNLQANANKRKDDVKLTKGREQLEEARRTYEILNTELHDELPALYDSRILFLVTNLQTLFATEQVFHNETAKIYSELEAIVDKLATESQRGSNTLRKQTSNPIKTSSPVQSPVNKLNNANINSNYQNQITTNGGSSLANSPTSTSSSLQEPRFDSVSSTPEPRPESPAAALVSATPSSPVENGVTTKSLERPELSGLNASAKATTTTQTSPTEDKAVVSEAVKPSETEGAAVAASVTPAPPATPAQINGNNNEPSIVKEGGKQPKELPSTTSNAEAAAEAAANNGNSIEEHKQKKLGNDTTVTATETVTVTQHSVTSTDTDNIVTISDTNTDTDTKTSTGTSQKGRPVPVVNRHSVNNLNKNPFEDDDERIYEVPADANTADLPPGVLYRVKATYGYAKEDVDELSFEIGDLIRVIEYDDPEDQEEGWLMGQKEGTNEKGLFPANFTRPI
